No constants are given. Whether binding was seen depends on the method and setting. Binding seen in cells or lysates may run through a third protein. Some binding calls cover weakened binding; strength is not graded here.
Key:
[1] = molecular target: epidermal growth factor receptor (human (endogenous in SGC-7901 and BGC-823)) (UniProt P00533); experiment: co-IP; proteins of SGC-7901 or BGC-823 cells precipitated with anti-EGFR antibody at 4 °C for 4 h, protein A+G agarose beads 1 h, six washes; Western blot for CD24
[2] = molecular target: epidermal growth factor receptor (human (endogenous in SGC-7901 and BGC-823)) (UniProt P00533); experiment: co-IP; data not shown; SGC-7901 and BGC-823 cells treated with the Src inhibitor PP2, association of CD24 with EGFR examined; the method is not given

With SETTTGTSSNSSQSTSNSGLAPNPTNATTKAAG (peptide, UniProt P25063 27-59) [CD24] the binding [1] was “binds” and the binding [2] was “binds”.

Source: PMC5439121
